According to PubChem BioAssay AID330 (DTP/NCI, 2004):
The list is a part of this screen's results and no random one: it is rich in T/C values a quarter to a half above the control, in often repeated tests (any T/C) and in doses without a T/C. Other doses and runs of a compound stand elsewhere. T/C: endpoint of the treated group in % of that of the vehicle group. Some entries give survivors of the animals treated and no T/C: the source holds a T/C of zero for them, seemingly a mark for toxic or unscored doses. Some doses without a T/C left all or most animals alive at the check, yet need not have been tolerated: survival well below the control is almost never listed, so the zero probably covers shortened survival too. Survivors were counted at the toxicity check, usually on the fifth day, unless a day is given; later deaths do not show. Schedule codes are those of the source, read here as Q, the interval in days (D) or hours (H), X, the number of doses. Signs of the kind (2×) say how often a value occurs here. Where survival is the endpoint, the PubChem record calls one and a half times the control and up active, and a quarter to a half above the control has no call in these data; cut-offs in other NCI protocols can differ. Some entries were tested several times; the values are given in rising order. Some T/C values carry the count of animals alive at the toxicity check (mostly the fifth day); where none is given, no animal had died by that day.

Tested on: P388 leukemia ip, CD2F1 mice, survival T/C
Assay: NCI In Vivo Anticancer Drug Screen. Data for tumor model P388 Leukemia (intraperitoneal) in CD2F1 (CDF1) mice
Details: T/C endpoint: median survival time, higher T/C = longer survival
[1] = dose: 200.0 mg/kg/injection, schedule: Q01DX005 (ip), vehicle: saline with Tween-80
[2] = dose: 100.0 mg/kg/injection, schedule: Q01DX005 (ip), vehicle: Klucel (hydroxypropylcellulose) (HPC)
[3] = dose: 200.0 mg/kg/injection, schedule: Q01DX005 (ip), vehicle: Klucel (hydroxypropylcellulose) (HPC)
[4] = dose: 200.0 mg/kg/injection, schedule: Q01DX009 (ip), vehicle: saline
[5] = dose: 200.0 mg/kg/injection, schedule: Q01DX009 (ip), vehicle: Klucel (hydroxypropylcellulose) (HPC)
[6] = dose: 240.0 mg/kg/injection, schedule: Q01DX005 (ip), vehicle: saline with Tween-80
[7] = dose: 50.0 mg/kg/injection, schedule: Q01DX009 (ip), vehicle: saline with Tween-80
[8] = dose: 200.0 mg/kg/injection, schedule: Q01DX009 (ip), vehicle: saline with Tween-80
[9] = dose: 60.0 mg/kg/injection, schedule: Q01DX005 (ip), vehicle: Klucel (hydroxypropylcellulose) (HPC)
[10] = dose: 120.0 mg/kg/injection, schedule: Q01DX005 (ip), vehicle: Klucel (hydroxypropylcellulose) (HPC)
[11] = dose: 240.0 mg/kg/injection, schedule: Q01DX005 (ip), vehicle: Klucel (hydroxypropylcellulose) (HPC)
[12] = dose: 400.0 mg/kg/injection, schedule: Q01DX009 (ip), vehicle: Klucel (hydroxypropylcellulose) (HPC)

## CCCCCCCCCCSCC(N)C(=O)O (stereo not drawn)
dose: 25.0 mg/kg/injection, schedule: Q01DX009 (ip), vehicle: other
  survivor count: 6 of 6

## CC(CC(=O)c1ccccc1)=NCCN=C(C)CC(=O)c1ccccc1.c1cc[c]([Sn][c]2ccccc2)cc1
dose: 100.0 mg/kg/injection, schedule: Q01DX001 (ip), vehicle: Klucel (hydroxypropylcellulose) (HPC)
  T/C: 143 % of control

## COc1cccc2c1SCC/C2=N\OCC(O)CNC1CCCCC1 (stereo not drawn)
dose: 400.0 mg/kg/injection, schedule: Q04DX002 (ip), vehicle: Klucel (hydroxypropylcellulose) (HPC)
  survivor count: 0 of 6

## CC1CCC2(OC1)OC1CC3C4CC=C5CC(OC6OC(CO)C(OC7OC(C)C(OC8OC(C)C(O)C(O)C8O)C(O)C7O)C(O)C6OC6OC(C)C(O)C(O)C6O)CCC5(C)C4CCC3(C)C1C2C (stereo not drawn)
dose: 2.5 mg/kg/injection, schedule: Q01DX009 (ip), vehicle: saline
  survivor count: 4 of 4
dose: 5.0 mg/kg/injection, schedule: Q01DX009 (ip), vehicle: saline
  survivor count: 5 of 6
dose: 10.0 mg/kg/injection, schedule: Q01DX009 (ip), vehicle: saline
  survivor count: 6 of 6
dose: 20.0 mg/kg/injection, schedule: Q01DX009 (ip), vehicle: saline
  survivor count: 3 of 6

## CN(C)CCNc1ccc(CO)c2sc3ccccc3c(=O)c12
[1]
  T/C: 138 % of control

## O=C1NC(O)c2cc(Br)cc(Br)c2O1 (stereo not drawn)
dose: 50.0 mg/kg/injection, schedule: Q01DX005 (ip), vehicle: Klucel (hydroxypropylcellulose) (HPC)
  survivor count: 3 of 6
[2]
  survivor count: 2 of 6
[3]
  survivor count: 0 of 6

## CC(C)(C)c1cc(-c2cc(C(C)(C)C)nc(N)n2)nc(N)n1
dose: 240.0 mg/kg/injection, schedule: Q01DX005 (ip), vehicle: saline
  survivor count: 1 of 6

## CN1CCC(/C=C/c2cccc3ccccc23)CN1 (stereo not drawn) (tested in a mixture with another compound)
[4]
  survivor count: 5 of 6

## O=C1C=CC(=Nc2ccc(N(CCCl)CCCl)cc2)c2ccccc21
dose: 12.5 mg/kg/injection, schedule: Q01DX009 (ip), vehicle: Klucel (hydroxypropylcellulose) (HPC)
  T/C: 131 % of control
dose: 25.0 mg/kg/injection, schedule: Q01DX009 (ip), vehicle: Klucel (hydroxypropylcellulose) (HPC)
  T/C: 128 % of control
dose: 50.0 mg/kg/injection, schedule: Q01DX009 (ip), vehicle: Klucel (hydroxypropylcellulose) (HPC)
  T/C: 140 % of control
[5]
  survivor count: 5 of 6

## Cc1cc(C(=O)O)ccc1S(=O)(=O)F
[6]
  survivor count: 3 of 6

## NC(=S)c1cccc(-c2ccccn2)n1
dose: 400.0 mg/kg/injection, schedule: Q04DX003 (ip), vehicle: Klucel (hydroxypropylcellulose) (HPC)
  survivor count: 1 of 6

## OCCN(CCO)Cc1cccc2ccccc12
[1]
  survivor count: 3 of 6

## C=CC(=O)NCNC(=O)C=C
[7]
  T/C: 140 % of control
dose: 100.0 mg/kg/injection, schedule: Q04DX003 (ip), vehicle: saline sonified
  T/C: 131 % of control
[8]
  survivor count: 6 of 6
dose: 200.0 mg/kg/injection, schedule: Q04DX003 (ip), vehicle: saline with Tween-80
  T/C: 140 % of control
dose: 400.0 mg/kg/injection, schedule: Q04DX003 (ip), vehicle: saline sonified
  survivor count: 4 of 6

## CN(CCC(C#N)c1ccccc1)Cc1ccccc1 (stereo not drawn)
[3]
  survivor count: 0 of 5

## COc1ccc(S(=O)(=O)NN)cc1
dose: 400.0 mg/kg/injection, schedule: Q01DX009 (ip), vehicle: other
  survivor count: 2 of 6

## COC1OC(=O)C(Cl)=C1N=[N+]=[N-] (stereo not drawn)
[9]
  survivor count: 0 of 6
[10]
  survivor count: 0 of 6
[11]
  survivor count: 0 of 6

## CN1c2c(nc(N)[nH]c2=O)NCC1CCNc1ccc(C(=O)NC(CCC(=O)O)C(=O)O)cc1 (stereo not drawn)
[5]
  T/C: 136 % of control
[4]
  T/C: 127 % of control [5 of 6 alive]
[12]
  T/C: 149 % of control
dose: 400.0 mg/kg/injection, schedule: Q01DX009 (ip), vehicle: saline
  T/C: 127 % of control
dose: 1200.0 mg/kg/injection, schedule: Q01DX005 (ip), vehicle: saline
  T/C: 133 % of control [5 of 6 alive]
dose: 1200.0 mg/kg/injection, schedule: Q01DX005 (iv), vehicle: saline
  T/C: 137 % of control
dose: 1200.0 mg/kg/injection, schedule: Q01DX009 (ip), vehicle: Klucel (hydroxypropylcellulose) (HPC)
  survivor count: 6 of 6
dose: 1200.0 mg/kg/injection, schedule: Q01DX009 (ip), vehicle: saline
  T/C: 129 % of control
dose: 1200.0 mg/kg/injection, schedule: Q01DX009 (ip), vehicle: sodium bicarbonate
  T/C: 146 % of control

## Nc1ncnc2c1c1c(=O)[nH]cnc1n2C1OC(CO)C(O)C1O (stereo not drawn)
dose: 25.0 mg/kg/injection, schedule: Q01DX009 (ip), vehicle: water
  T/C: 133 % of control

## [O-][n+]1nc2ccccc2c2ccccc21
[5]
  survivor count: 3 of 6
[12]
  survivor count: 0 of 6

## CC1(C)N=C(N)N=C(N)N1c1cccc(CCC(=O)Nc2ccc(S(=O)(=O)F)cc2)c1
dose: 150.0 mg/kg/injection, schedule: Q01DX009 (ip), vehicle: saline with Tween-80
  T/C: 127 % of control
dose: 300.0 mg/kg/injection, schedule: Q01DX009 (ip), vehicle: saline with Tween-80
  survivor count: 0 of 6

## N=C(N)c1ccc2oc(/C=C/C=C/C=C/c3cc4cc(C(=N)N)ccc4o3)cc2c1
dose: 200.0 mg/kg/injection, schedule: Q04DX003 (ip), vehicle: saline
  T/C: 130 % of control
dose: 400.0 mg/kg/injection, schedule: Q04DX003 (ip), vehicle: saline
  T/C: 137 % of control [5 of 6 alive]

## COc1ccc2nc(NCCNCCO)cc(NCCNCCO)c2c1
dose: 120.0 mg/kg/injection, schedule: Q01DX005 (ip), vehicle: water
  survivor count: 0 of 6
dose: 240.0 mg/kg/injection, schedule: Q01DX005 (ip), vehicle: water
  survivor count: 0 of 6

## Cc1nnc2n1-c1ccc(Cl)cc1C(c1ccccc1)=[N+]([O-])C2
[8]
  survivor count: 4 of 6

## COc1ccc2c3c1O[C@H](c1ccc(O)cc1)[C@H]3[N+](C)(C)CC2
[2]
  survivor count: 0 of 6

## COC(=O)c1ccc(OCCC(=O)CCl)cc1
[5]
  survivor count: 0 of 6

## O=C(NC(CO)(CO)CO)c1cc(N2CC2)c([N+](=O)[O-])cc1[N+](=O)[O-]
[7]
  T/C: 131 % of control
dose: 100.0 mg/kg/injection, schedule: Q01DX009 (ip), vehicle: saline with Tween-80
  T/C: 131 % of control
[8]
  T/C: 142 % of control [5 of 6 alive]

## Cc1cc[c]([Bi]([c]2ccc(C)cc2)[c]2ccc(C)cc2)cc1
[11]
  survivor count: 6 of 6

## O=C1Nc2ccccc2C1NC(=S)Nc1ccccc1 (stereo not drawn)
[6]
  survivor count: 6 of 6

## CO[C@H]1/C=C/O[C@@]2(C)Oc3c(C)c(O)c4c(O)c(c(/C=N/N5C(C)CN(Cc6ccc(C#N)cc6)CC5C)c(O)c4c3C2=O)NC(=O)/C(C)=C\C=C\[C@H](C)[C@H](O)[C@@H](C)[C@@H](O)[C@@H](C)[C@H](OC(C)=O)[C@@H]1C (stereo partly drawn)
[8]
  survivor count: 4 of 6
[12]
  survivor count: 0 of 6

## c1ccc2nc(N=Nc3cnc4ccccc4n3)cnc2c1
dose: 25.0 mg/kg/injection, schedule: Q01DX001 (ip), vehicle: saline with Tween-80
  survivor count: 6 of 6

## Cc1ccc(-n2c(COc3c(C)cccc3C)n[nH]c2=S)cc1
[2]
  survivor count: 6 of 6

## CC(=O)N=c1sccn1CC(=O)c1ccccc1
dose: 100.0 mg/kg/injection, schedule: Q04DX003 (ip), vehicle: Klucel (hydroxypropylcellulose) (HPC)
  survivor count: 6 of 6

## CC1(C)[C@H]2Cc3c(ccc4c3C(=O)OC4=O)[C@@H]1C2
dose: 200.0 mg/kg/injection, schedule: Q01DX005 (ip), vehicle: Klucel + Tween-80
  survivor count: 1 of 6

## CCOC(=O)c1ccc(NC(=O)Nc2nc(C)cs2)cc1
dose: 100.0 mg/kg/injection, schedule: Q01DX009 (ip), vehicle: distilled water + Tween-80
  T/C: 127 % of control
dose: 200.0 mg/kg/injection, schedule: Q01DX009 (ip), vehicle: distilled water + Tween-80
  T/C: 138 and 139 % of control
dose: 400.0 mg/kg/injection, schedule: Q01DX009 (ip), vehicle: distilled water + Tween-80
  survivor count: 0 of 6

## O=C(/C=C1\Nc2ccccc2N(C(=O)c2ccccc2)C1c1ccccc1)c1ccccc1 (stereo not drawn)
[9]
  survivor count: 6 of 6 (2×)
[10]
  survivor count: 6 of 6
[11]
  survivor count: 6 of 6
